A: 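Assay of Toxoplasma gondii numbers, read through their beta-galactosidase reporter with a colour substrate. Compounds at 10 µM. Higher reads as fewer parasites (inferred from which compounds were picked for retests). Size under these conditions: about 67,000 compounds, about 260 of them at 50% or above in at least one test.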
B: 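Enzyme assay of the thioesterase domain of polyketide synthase 13; the read-out is not stated. Target: Polyketide synthase Pks13, Mycobacterium tuberculosis (UniProt I6X8D2). Tested at 30 µM. Higher reads as stronger inhibition (inferred from which compounds were picked for retests). About 67,000 compounds were tested under these conditions; 0.46% (about 300) showed 50% or more at least once.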
C: 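Enzyme assay of the cytosolic lysyl-tRNA synthetase in 384-well plates, read by luminescence. Target: Lysine-tRNA ligase, Plasmodium falciparum 3D7 (UniProt Q8IDJ8). Compounds at 30 µM. Higher reads as stronger inhibition, judged from the few compounds that gave an IC50. Size under these conditions: about 69,000 compounds, about 49 of them at 50% or above in at least one test.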
D: 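Enzyme assay of CoaBC with a phosphate dye (Biomol Green) read at 650 nm. Target: Coenzyme A biosynthesis protein CoaBC, Mycobacterium tuberculosis (UniProt P9WNZ1). Concentration: 30 µM. Higher reads as stronger inhibition, judged from the few compounds that gave an IC50. Most strong results did not repeat in a second test. Of about 67,000 compounds tested this way, about 40 (0.06%) reached 50% or more in at least one test.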

The chains behind the UniProt entries cited, without tags or fusion partners. Residues count along the entry.
UniProt I6X8D2, whole entry: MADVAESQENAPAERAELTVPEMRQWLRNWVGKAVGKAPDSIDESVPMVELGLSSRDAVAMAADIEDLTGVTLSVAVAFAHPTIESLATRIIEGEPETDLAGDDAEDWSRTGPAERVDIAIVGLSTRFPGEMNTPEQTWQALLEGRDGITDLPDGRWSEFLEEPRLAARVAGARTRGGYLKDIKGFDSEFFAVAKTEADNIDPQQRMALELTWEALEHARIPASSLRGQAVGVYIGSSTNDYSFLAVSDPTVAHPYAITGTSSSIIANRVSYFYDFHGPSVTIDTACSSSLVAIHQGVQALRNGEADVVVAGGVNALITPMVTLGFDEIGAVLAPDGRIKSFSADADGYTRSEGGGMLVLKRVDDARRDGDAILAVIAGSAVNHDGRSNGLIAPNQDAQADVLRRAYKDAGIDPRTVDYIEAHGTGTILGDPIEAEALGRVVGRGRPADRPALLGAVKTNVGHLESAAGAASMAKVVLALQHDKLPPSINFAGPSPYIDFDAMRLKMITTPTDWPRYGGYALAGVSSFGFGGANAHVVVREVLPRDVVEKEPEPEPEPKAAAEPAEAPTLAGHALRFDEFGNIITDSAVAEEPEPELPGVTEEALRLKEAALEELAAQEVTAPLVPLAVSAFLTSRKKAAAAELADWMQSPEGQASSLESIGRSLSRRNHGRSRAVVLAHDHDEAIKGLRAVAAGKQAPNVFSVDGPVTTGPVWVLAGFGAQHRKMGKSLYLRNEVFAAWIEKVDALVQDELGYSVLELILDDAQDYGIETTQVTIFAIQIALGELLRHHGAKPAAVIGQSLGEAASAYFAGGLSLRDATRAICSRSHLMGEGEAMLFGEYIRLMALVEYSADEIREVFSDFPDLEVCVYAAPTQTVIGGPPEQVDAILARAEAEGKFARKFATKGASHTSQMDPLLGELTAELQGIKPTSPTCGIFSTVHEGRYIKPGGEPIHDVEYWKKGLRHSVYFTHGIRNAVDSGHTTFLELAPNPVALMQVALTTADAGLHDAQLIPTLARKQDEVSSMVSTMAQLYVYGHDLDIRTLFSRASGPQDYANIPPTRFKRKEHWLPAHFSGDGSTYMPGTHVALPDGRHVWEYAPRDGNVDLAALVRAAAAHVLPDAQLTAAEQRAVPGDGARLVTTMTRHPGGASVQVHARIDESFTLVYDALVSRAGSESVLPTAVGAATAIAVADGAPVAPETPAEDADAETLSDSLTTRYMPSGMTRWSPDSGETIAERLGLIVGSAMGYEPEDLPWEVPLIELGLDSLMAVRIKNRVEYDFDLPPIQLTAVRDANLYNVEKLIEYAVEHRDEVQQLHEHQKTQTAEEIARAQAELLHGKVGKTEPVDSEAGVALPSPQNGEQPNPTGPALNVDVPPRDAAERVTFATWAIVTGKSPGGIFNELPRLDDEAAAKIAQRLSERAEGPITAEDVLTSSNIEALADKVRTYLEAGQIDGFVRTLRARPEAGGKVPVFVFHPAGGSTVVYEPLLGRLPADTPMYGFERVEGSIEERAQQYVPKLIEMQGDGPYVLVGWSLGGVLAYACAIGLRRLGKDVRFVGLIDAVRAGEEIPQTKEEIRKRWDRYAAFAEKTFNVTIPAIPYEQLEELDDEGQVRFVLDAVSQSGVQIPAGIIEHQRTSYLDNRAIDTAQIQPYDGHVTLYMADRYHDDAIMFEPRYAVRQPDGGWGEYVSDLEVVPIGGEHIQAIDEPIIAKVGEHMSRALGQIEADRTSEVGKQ
UniProt Q8IDJ8, 1-583: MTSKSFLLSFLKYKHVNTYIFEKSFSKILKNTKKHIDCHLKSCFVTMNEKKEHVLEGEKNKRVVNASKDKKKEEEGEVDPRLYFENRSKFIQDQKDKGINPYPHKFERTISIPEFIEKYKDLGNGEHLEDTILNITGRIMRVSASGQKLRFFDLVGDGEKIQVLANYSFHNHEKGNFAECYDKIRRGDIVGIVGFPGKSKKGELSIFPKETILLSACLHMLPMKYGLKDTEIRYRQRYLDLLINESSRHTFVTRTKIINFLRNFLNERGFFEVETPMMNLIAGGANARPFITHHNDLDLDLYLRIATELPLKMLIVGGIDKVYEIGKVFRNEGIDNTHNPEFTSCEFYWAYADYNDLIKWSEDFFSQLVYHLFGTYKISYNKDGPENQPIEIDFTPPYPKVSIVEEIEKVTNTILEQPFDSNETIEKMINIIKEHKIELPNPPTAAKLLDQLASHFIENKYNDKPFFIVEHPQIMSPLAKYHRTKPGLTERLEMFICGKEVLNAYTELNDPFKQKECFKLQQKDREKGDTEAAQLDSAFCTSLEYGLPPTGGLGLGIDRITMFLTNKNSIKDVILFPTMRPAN
UniProt P9WNZ1, whole entry: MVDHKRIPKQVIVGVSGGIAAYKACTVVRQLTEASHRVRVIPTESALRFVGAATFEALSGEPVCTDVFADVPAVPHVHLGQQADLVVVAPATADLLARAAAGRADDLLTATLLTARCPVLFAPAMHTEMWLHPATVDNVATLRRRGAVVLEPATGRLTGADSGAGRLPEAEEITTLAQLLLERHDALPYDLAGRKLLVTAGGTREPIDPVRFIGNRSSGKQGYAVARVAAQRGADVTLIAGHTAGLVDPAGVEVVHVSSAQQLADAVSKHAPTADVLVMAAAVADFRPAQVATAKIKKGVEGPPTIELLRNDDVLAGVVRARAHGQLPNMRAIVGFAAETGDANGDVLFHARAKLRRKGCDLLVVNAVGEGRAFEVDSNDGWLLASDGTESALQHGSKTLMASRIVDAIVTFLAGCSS

The filed quantity is “Percent Effect” (%).
How 0% and 100% were set is not recorded. Most values in the screen are low, and negative values occur.
Compounds were drawn at random from those tested, without regard to their results.
A dash means the value is not listed here; it may have been measured.

SMILES,A,B,C,D
CCCn1cc(-c2cc(-c3c[nH]cn3)c(C#N)c(N)n2)c(C)n1,-39.89,29.53,14.51,1.948
[H][C@@]12CCC(=O)N(CCc3ccccc3)[C@]1([H])CCN(c1ccnc(C)n1)C2,0.5481,-,-,-
COc1ccc(C2CCCCCN2Cc2nnc(C)o2)cc1 (stereo unspecified),5.674,3.623,7.056,7.371
CCC(=O)NCC(=O)NCC1(O)CCC(C(C)(C)C)CC1 (stereo unspecified),0.4284,-39.03,3.11,2.679
CC1(C)O[C@@](C)([C@H]2CC3(CCN(c4ncccn4)CC3)CO2)CC[C@@H]1O,-,-2.369,0.3701,2.179
[H][C@@]12CCCO[C@]1([H])[C@H](NC(=O)CC1CC1)CN(C(=O)c1cccs1)C2,-8.614,-,-,-
Cc1cccc(N(CCC(N)=O)CC(=O)NC2CCCC2)c1,-11.58,-12.75,-0.1789,0.2457
CNC(=O)[C@@H]1[C@@H](c2ccccc2)CN2CCN(Cc3ccccn3)C[C@H]12,-,13.92,1.532,3.632
CCn1cc2c(n1)C(COC)CN(c1ccc(C)nn1)C2 (stereo unspecified),-,-25.55,-2.497,8.333
Cc1cccnc1NC(=O)NCc1cccnc1OC(C)C,4.066,22.88,3.787,10.56
CC(C(=O)NCC(C)(C)c1ccc2c(c1)OCO2)n1ccnc1 (stereo unspecified),11.12,-2.604,2.507,2.913
CCS(=O)(=O)N1CCC(c2nnc(C(F)(F)F)o2)CC1,17.48,-11.03,4.305,4.141
[H][C@@]12CN(c3nc(C)cnc3C)C[C@]1([H])N(C1CCCC1)C(=O)O2,20.99,-,-,-
NC(=O)NCCC(=O)N1CCC(c2cc(-c3ccccc3Cl)n[nH]2)CC1,9.012,-14.34,6.546,0.5115
O=S(=O)(NCc1ccccc1)Nc1ccc(-n2cncn2)cc1,-11.84,0.5475,1.404,1.948
CCC(C)(C)NC(=O)c1ccc(NC(=O)NCc2cc(C)on2)cc1,-3.055,-12.57,3.881,5.159
CS(=O)(=O)NCC1CCCCN1C(=O)c1ccc(Br)s1 (stereo unspecified),9.929,-5.396,4.074,-6.11
CCOc1ccccc1-c1noc(CN2CCOC(CN(C)C)C2)n1 (stereo unspecified),-3.011,-21.65,0.9014,7.991
Cc1nn(C)c(C)c1CCC(=O)NCc1csc(N2CCCC2)n1,-1.265,-9.313,3.277,11.24
Cc1nn(C)c(N2CCOCC2)c1CNC1CCC(O)CC1 (stereo unspecified),-25.56,-3.865,0.3289,2.625
COCC1CC2(CCN(Cc3ccc(C)o3)CC2)CN1C(C)C.O=C(O)C(F)(F)F.O=C(O)C(F)(F)F (stereo unspecified),16.29,-,-,-
O=C(CN1CCC(c2ccnn2CCO)CC1)NC1CCCC1,-16.4,4.978,1.973,1.837
[H][C@]12CC[C@]([H])(CN(Cc3cnc(-c4cccc(OC)c4)s3)C1)N(C)C2=O,-4.224,-,-,-
O=C(NCC1CC1)[C@@H]1C[C@@H]2OCCN[C@@H]2C1,-,-31.4,3.667,-1.961
CC(C)NC(=O)c1sccc1N(C)S(=O)(=O)c1ccc(Cl)cc1,0.7541,-22.03,5.467,3.644
CN(CCN1CCCCCC1)C(=O)c1c(O)cccc1O,11.31,-14.45,5.18,-0.2169
COCCN1CCC2(COCc3cnc(N(C)C)nc32)C1.O=C(O)C(F)(F)F (stereo unspecified),-0.9668,-,-,-
O=C(NCCOc1ccc(C(F)(F)F)cn1)c1ccoc1,-15.92,-9.525,4.593,-3.259
CC(C)n1ccnc1C1CCN(C(=O)C2COc3ccccc3O2)CC1 (stereo unspecified),-15.5,-9.933,5.667,-8.333
COc1ccc(F)c(-c2cc(C(=O)NC3CC3)ccn2)c1,5.933,12.09,6.883,4.049
CN(C)CC1(O)CCN(S(=O)(=O)c2ccc(F)c(F)c2)C1 (stereo unspecified),17.87,-14.21,0.06889,0.8333
Cc1noc(C)c1CSCc1csc(CS(C)(=O)=O)n1,-0.6664,11.99,3.004,4.793
CCN(CC)S(=O)(=O)N1CCCN(CC2CCCO2)CC1 (stereo unspecified),18.34,-4.254,-5.423,-3.614
COCC(=O)NC1CC2(CCN(CCF)CC2)Oc2ccccc21.O=C(O)C(F)(F)F (stereo unspecified),2.429,-,-,-
COC(=O)N1CCCN(Cn2nc(C)c(Br)c2C)CC1,17.83,-13.29,-5.684,-4.793
CN(C)CCN1CCOCC2(C1)CN(Cc1ccco1)CCO2.O=C(O)C(F)(F)F.O=C(O)C(F)(F)F.O=C(O)C(F)(F)F (stereo unspecified),-5.059,-,-,-
CCc1cc(NCc2cc(CC(C)C)on2)n2nccc2n1,-37.61,-26.52,1.557,1.099
Cc1nc(Nc2ncc(C)s2)cc(C2CCCN2S(C)(=O)=O)n1 (stereo unspecified),10.86,15,2.188,3.585
O=C(NCc1cnc2n1CCN(Cc1ccoc1)C2)c1ccno1,-,9.861,5.527,0
O=C(O)C(F)(F)F.[H][C@]12CCC[C@@]1(COCc1cccnc1)CN(C(=O)c1ocnc1C)C2,3.623,-,-,-
O=C1CC2(CCNCC2)C(=O)N1Cc1ccc(F)cc1,-,-63.58,2.759,5.792
CCn1cc(NC(=O)NCCN2CCCCCC2=O)cn1,22.98,-14.32,6.996,0.1258
CC(C)c1noc(C2CCCN2S(=O)(=O)Cc2ccc(F)cc2)n1 (stereo unspecified),-10.12,-25.7,5.033,1.606
Cc1ccccc1CC(=O)N(C)C1CCN(c2ccccn2)CC1,-1.331,-25.19,-1.687,1.434
CC1COc2ccccc2N1C(=O)c1ccc(=O)n(C)c1 (stereo unspecified),-2.055,-2.237,-5.417,-
COc1ccccc1C1(CNCc2ccc(C#N)cc2)CCOCC1,0.5192,-11.15,2.683,3.538
O=C(c1ccc[nH]1)N1CCn2cc(CN3CCCC3)nc2C1,-,-41.24,-3.92,3.109
Cc1cccc(C(=O)N2CCN(c3ccccc3F)CC2)n1,18.56,-17.95,-0.7543,2.061
CCc1nc(C)c(-c2nccn2CC2CCCCO2)[nH]1 (stereo unspecified),-0.2372,-15.76,5.944,2.046
Cc1cc(NC(=O)N2CCN(c3nc(C)c(C)s3)CC2)no1,7.77,-14.28,2.974,2.692
Cc1cnc(N2CCC3(CC2)COCCN(C(C)C)C3)nc1,-,-1.602,7.75,1.97
CNC(=O)C(C)(C)N1CCC[C@H]1C(=O)NCCN1CCOCC1,0.9524,-29.08,0.1345,7.449
Cc1cc(C)nc(N2CCOC(c3cc(CCO)[nH]n3)C2)n1 (stereo unspecified),-14.37,12.27,0.8821,0.7884
COCCC(=O)N1CCCC1c1nccnc1Nc1ncccn1 (stereo unspecified),-21.63,-16.41,1.933,-0.9709
COc1nc(C)c(C(=O)N2CCN(c3ncccc3C)CC2)s1,4.269,-18.45,7.099,1.023
Cc1nn(CCNS(=O)(=O)NCc2ccccc2)c(C)c1Cl,-2.693,-12.98,1.657,3.321
CCc1c(C)nc(C)nc1N1C[C@@H](CN(CC)CCO)[C@@H](CO)C1,7.005,9.074,4.849,-1.028
CC(=O)N1CCN(CC2CCOc3ccccc3C2)CC1 (stereo unspecified),-7.793,-10.52,-0.8795,-10.55
COCC(=O)N1CCN(C)C(=O)C(Cc2ccccc2-c2cccs2)C1 (stereo unspecified),-11.69,2.606,3.112,1.399

The first 7 entries again:

{"smiles": "CCCn1cc(-c2cc(-c3c[nH]cn3)c(C#N)c(N)n2)c(C)n1", "A": -39.89, "B": 29.53, "C": 14.51, "D": 1.948}
{"smiles": "[H][C@@]12CCC(=O)N(CCc3ccccc3)[C@]1([H])CCN(c1ccnc(C)n1)C2", "A": 0.5481}
{"smiles": "COc1ccc(C2CCCCCN2Cc2nnc(C)o2)cc1", "stereo": "stereo unspecified", "A": 5.674, "B": 3.623, "C": 7.056, "D": 7.371}
{"smiles": "CCC(=O)NCC(=O)NCC1(O)CCC(C(C)(C)C)CC1", "stereo": "stereo unspecified", "A": 0.4284, "B": -39.03, "C": 3.11, "D": 2.679}
{"smiles": "CC1(C)O[C@@](C)([C@H]2CC3(CCN(c4ncccn4)CC3)CO2)CC[C@@H]1O", "B": -2.369, "C": 0.3701, "D": 2.179}
{"smiles": "[H][C@@]12CCCO[C@]1([H])[C@H](NC(=O)CC1CC1)CN(C(=O)c1cccs1)C2", "A": -8.614}
{"smiles": "Cc1cccc(N(CCC(N)=O)CC(=O)NC2CCCC2)c1", "A": -11.58, "B": -12.75, "C": -0.1789, "D": 0.2457}

Data taken from ChEMBL document CHEMBL3988442, “University of Dundee, Small-Polar-MMV Screening Library” (2021).